Experimental data published in article PMC3836738.
No constants are given. Whether binding was seen depends on the method and setting. Binding seen in cells or lysates may run through a third protein. Some binding calls cover weakened binding; strength is not graded here. For some of these results: Where a sequence is shown, tags or fusion partners need not be part of it.

The chains behind the UniProt entries cited, without tags or fusion partners.
UniProt Q86YI8: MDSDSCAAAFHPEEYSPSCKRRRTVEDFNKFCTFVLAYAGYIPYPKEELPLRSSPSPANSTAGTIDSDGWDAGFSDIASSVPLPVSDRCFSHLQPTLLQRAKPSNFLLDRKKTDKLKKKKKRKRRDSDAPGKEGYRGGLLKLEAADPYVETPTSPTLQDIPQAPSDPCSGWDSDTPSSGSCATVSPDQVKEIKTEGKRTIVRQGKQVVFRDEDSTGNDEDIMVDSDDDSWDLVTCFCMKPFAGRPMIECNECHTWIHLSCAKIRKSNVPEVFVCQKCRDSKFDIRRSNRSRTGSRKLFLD

How the values were obtained:
[1] = biological target: SPOC1 (survival-time associated PHD protein in ovarian cancer 1/PHF13), endogenous (human (endogenous in H1299)) (UniProt Q86YI8); assay: co-IP; H1299 cells transfected with pVII expression constructs (ppVII, pVII) or infected with H5pg4100 at 50 FFU per cell; total cell extracts 24 h after transfection or infection; precipitated with rabbit polyclonal SPOC1 antibody, blot with 3F10 (HA) and pVII antibody
[2] = biological target: T1, SPOC1 (survival-time associated PHD protein in ovarian cancer 1/PHF13), endogenous (human (endogenous in H1299)), Q86YI8; assay: co-IP; H1299 cells transfected with empty plasmid or pE1B-55K-wt; total cell extracts 24 h after transfection; precipitated with rabbit polyclonal SPOC1 antibody, blot with 2A6 (E1B-55K); settings: remark: other sources report otherwise
[3] = biological target: SPOC1, exogenous, doxycyclin-induced in stably transfected DLD1 and U2OS cells (human), Q86YI8; assay: co-IP; DLD1 and U2OS cells with doxycyclin-induced SPOC1, infected with H5pg4100, H5pm4149 or H5pm4154 at 50 FFU per cell; total cell extracts 24 h post infection; precipitated with rabbit polyclonal SPOC1 antibody, blot with 2A6 (E1B-55K) and B6-8 (E2A/DBP); settings: remark: other sources report otherwise
[4] = biological target: T1, SPOC1 (survival-time associated PHD …); assay: co-IP; H1299 cells infected with H5pg4100, H5pm4149 or H5pm4154 at 50 FFU per cell; total cell extracts 24 and 48 h post infection; precipitated with rabbit polyclonal SPOC1 antibody, blot with 2A6 (E1B-55K) and B6-8 (E2A/DBP); settings: remark: other sources report otherwise

B1: Ad core protein VII, precursor form (ppVII: prepVII), HA-tagged, transfected (protein, UniProt P68951 1-198)
chain: MSILISPSNNTGWGLRFPSKMFGGAKKRSDQHPVRVRGHYRAPWGAHKRGRTGRTTVDDAIDAVVEEARNYTPTPPPVSTVDAAIQTVVRGARRYAKMKRRRRRVARRHRRRPGTAAQRAAAALLNRARRTGRRAAMRAARRLAAGIVTVPPRSRRRAAAAAAAAISAMTQGRRGNVYWVRDSVSGLRVPVRTRPPRN
[1]
  binding: binds

B2: Ad5 E1B-55K (early region 1B 55 kDa protein), wild type, expressed from a pcDNA3-derived plasmid, P03243 1-496 (protein)
chain: MERRNPSERGVPAGFSGHASVESGCETQESPATVVFRPPGDNTDGGAAAAAGGSQAAAAGAEPMEPESRPGPSGMNVVQVAELYPELRRILTITEDGQGLKGVKRERGACEATEEARNLAFSLMTRHRPECITFQQIKDNCANELDLLAQKYSIEQLTTYWLQPGDDFEEAIRVYAKVALRPDCKYKISKLVNIRNCCYISGNGAEVEIDTEDRVAFRCSMINMWPGVLGMDGVVIMNVRFTGPNFSGTVFLANTNLILHGVSFYGFNNTCVEAWTDVRVRGCAFYCCWKGVVCRPKSRASIKKCLFERCTLGILSEGNSRVRHNVASDCGCFMLVKSVAVIKHNMVCGNCEDRASQMLTCSDGNCHLLKTIHVASHSRKAWPVFEHNILTRCSLHLGNRRGVFLPYQCNLSHTKILLEPESMSKVNLNGVFDMTMKIWKVLRYDETRTRCRPCECGGKHIRNQPVMLDVTEELRPDHLVLACTRAEFGSSDEDTD
[2]
  binding: binds

B3: Ad5 E1B-55K expressed in virus-infected cells, P03243 1-496 (protein)
chain: MERRNPSERGVPAGFSGHASVESGCETQESPATVVFRPPGDNTDGGAAAAAGGSQAAAAGAEPMEPESRPGPSGMNVVQVAELYPELRRILTITEDGQGLKGVKRERGACEATEEARNLAFSLMTRHRPECITFQQIKDNCANELDLLAQKYSIEQLTTYWLQPGDDFEEAIRVYAKVALRPDCKYKISKLVNIRNCCYISGNGAEVEIDTEDRVAFRCSMINMWPGVLGMDGVVIMNVRFTGPNFSGTVFLANTNLILHGVSFYGFNNTCVEAWTDVRVRGCAFYCCWKGVVCRPKSRASIKKCLFERCTLGILSEGNSRVRHNVASDCGCFMLVKSVAVIKHNMVCGNCEDRASQMLTCSDGNCHLLKTIHVASHSRKAWPVFEHNILTRCSLHLGNRRGVFLPYQCNLSHTKILLEPESMSKVNLNGVFDMTMKIWKVLRYDETRTRCRPCECGGKHIRNQPVMLDVTEELRPDHLVLACTRAEFGSSDEDTD
[3]
  binding: binds
[4]
  binding: binds
